Measurements reported in PMC11249239 (PLOS ONE, 2024).
Where two headings read alike, the source gives them in different places.

Legend:
Format in all cases: cell-based
T47D (ER+) cells = test: Cell growth inhibition (CCK8 cytotoxicity assay), T47D; settings: Homo sapiens, 48 h treatment, read-out: Average EC50 ± SD, cell growth inhibition
Excerpt: (§1) Prism-GraphPad software was used to analyze data.

MCF7 (ER+) cells = test: Cell growth inhibition (CCK8 cytotoxicity assay), MCF7; settings: Homo sapiens, 48 h treatment, read-out: Average EC50 ± SD, cell growth inhibition
HCC-1937 (TNB) cells = test: Cell growth inhibition (CCK8 cytotoxicity assay), HCC-1937; settings: Homo sapiens, HCC1937, 48 h treatment, read-out: Average EC50 ± SD, cell growth inhibition
Excerpt: as §1

MDA-MB-231 (TNB) cells = test: Cell growth inhibition (CCK8 cytotoxicity assay), MDA-MB-231; settings: 48 h treatment, read-out: Average EC50 ± SD, cell growth inhibition
Excerpt: as §1

SMILES: O=C(CCCCCCC(=O)Nc1ccccc1)NO [SAHA, reference compound]
- EC50 (T47D (ER+) cells): 3.9 ± 0.469 µM
- EC50 (MCF7 (ER+) cells): 3.65 ± 0.151 µM
- EC50 (HCC-1937 (TNB) cells): 11.3 ± 1.87 µM
- EC50 (MDA-MB-231 (TNB) cells): 2.41 ± 1.51 µM
- EC50 (MDA-MB-231 (TNB) cells; Homo sapiens, MDA-MB-231, 48 h): 2.4 µM
